Laboratory results from publication doi:10.1101/2025.09.10.675342.
Where a chain is given by its changes, count along the chain named. Results are given in words; binding and its absence hold for the method and conditions named. In cells and extracts the contact can be indirect. Some entries that bind do so weakly or less than the wild type. Sequences can lack the tags named with a protein.

Chains of the proteins cited; added tags and fusions are not shown. Residues count along the entry.
UniProt P11835, residues 24-771: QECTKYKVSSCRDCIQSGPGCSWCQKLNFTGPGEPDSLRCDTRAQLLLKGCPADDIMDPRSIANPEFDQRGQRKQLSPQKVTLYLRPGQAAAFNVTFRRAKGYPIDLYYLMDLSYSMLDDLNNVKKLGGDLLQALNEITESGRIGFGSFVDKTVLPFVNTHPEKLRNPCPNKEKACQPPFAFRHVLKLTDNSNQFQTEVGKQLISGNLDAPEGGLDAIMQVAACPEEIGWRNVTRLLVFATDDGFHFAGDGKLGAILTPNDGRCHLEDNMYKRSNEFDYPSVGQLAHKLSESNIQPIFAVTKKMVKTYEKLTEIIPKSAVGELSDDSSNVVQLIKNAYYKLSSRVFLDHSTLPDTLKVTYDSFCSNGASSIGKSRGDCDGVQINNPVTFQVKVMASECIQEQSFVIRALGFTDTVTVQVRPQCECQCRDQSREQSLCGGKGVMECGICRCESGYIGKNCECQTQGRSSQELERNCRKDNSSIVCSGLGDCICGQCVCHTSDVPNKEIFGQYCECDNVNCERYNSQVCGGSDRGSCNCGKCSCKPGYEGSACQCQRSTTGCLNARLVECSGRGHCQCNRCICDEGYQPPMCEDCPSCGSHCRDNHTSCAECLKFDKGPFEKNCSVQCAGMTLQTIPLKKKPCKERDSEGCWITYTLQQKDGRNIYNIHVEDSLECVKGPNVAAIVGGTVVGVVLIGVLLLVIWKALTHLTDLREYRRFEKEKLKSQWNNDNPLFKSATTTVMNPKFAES

Tests used:
Experiment in all cases: FRET or BRET
[1] = target: T1, CLIP-tagged mouse SIRPα Y86H (mouse) (UniProt P97797)
T1 sequence (chain, CLIP-Surface 547 on the CLIP tag): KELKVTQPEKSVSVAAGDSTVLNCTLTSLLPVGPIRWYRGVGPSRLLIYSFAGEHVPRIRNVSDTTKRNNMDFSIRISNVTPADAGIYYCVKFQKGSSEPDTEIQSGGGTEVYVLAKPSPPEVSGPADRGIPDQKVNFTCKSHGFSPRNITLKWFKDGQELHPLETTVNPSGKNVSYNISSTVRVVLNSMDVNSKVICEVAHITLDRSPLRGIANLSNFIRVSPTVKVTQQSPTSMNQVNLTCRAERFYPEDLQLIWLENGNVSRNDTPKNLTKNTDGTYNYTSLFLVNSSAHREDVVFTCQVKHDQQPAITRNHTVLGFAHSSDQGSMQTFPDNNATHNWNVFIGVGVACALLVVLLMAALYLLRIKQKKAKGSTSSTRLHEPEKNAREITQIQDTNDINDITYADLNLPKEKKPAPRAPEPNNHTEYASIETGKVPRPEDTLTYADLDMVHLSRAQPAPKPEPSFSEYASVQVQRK

[2] = target: T2, CLIP-tagged mouse SIRPα T96V (mouse) (UniProt P97797)
T2 sequence (chain, CLIP-Surface 547 on the CLIP tag): T1 sequence (chain, CLIP-Surface 547 on the CLIP tag) with H55Y, T65V

[3] = target: T3, CLIP-tagged mouse SIRPα S81P (mouse) (UniProt P97797)
T3 sequence (chain, CLIP-Surface 547 on the CLIP tag): T1 sequence (chain, CLIP-Surface 547 on the CLIP tag) with S50P, H55Y

[4] = target: T4, CLIP-tagged mouse SIRPα T133I, V143L, Y144L (mouse) (UniProt P97797)
T4 sequence (chain, CLIP-Surface 547 on the CLIP tag): T1 sequence (chain, CLIP-Surface 547 on the CLIP tag) with H55Y, T102I, V112L, Y113L

binding [1]: binds
binding [2]: binds
binding [3]: binds
binding [4]: binds
Substance: SNAP-tagged mouse CD18 (acceptor-labeled CD18) (from UniProt P11835 24-771) (receptor)
